# Assay results as given in PMC12794220.
# The chains behind the UniProt entries cited, without tags or fusion partners. Where a name states a change or a piece, a line headed by the entry shows the natural chain unless it says otherwise.
# UniProt A0A3Q7IID5: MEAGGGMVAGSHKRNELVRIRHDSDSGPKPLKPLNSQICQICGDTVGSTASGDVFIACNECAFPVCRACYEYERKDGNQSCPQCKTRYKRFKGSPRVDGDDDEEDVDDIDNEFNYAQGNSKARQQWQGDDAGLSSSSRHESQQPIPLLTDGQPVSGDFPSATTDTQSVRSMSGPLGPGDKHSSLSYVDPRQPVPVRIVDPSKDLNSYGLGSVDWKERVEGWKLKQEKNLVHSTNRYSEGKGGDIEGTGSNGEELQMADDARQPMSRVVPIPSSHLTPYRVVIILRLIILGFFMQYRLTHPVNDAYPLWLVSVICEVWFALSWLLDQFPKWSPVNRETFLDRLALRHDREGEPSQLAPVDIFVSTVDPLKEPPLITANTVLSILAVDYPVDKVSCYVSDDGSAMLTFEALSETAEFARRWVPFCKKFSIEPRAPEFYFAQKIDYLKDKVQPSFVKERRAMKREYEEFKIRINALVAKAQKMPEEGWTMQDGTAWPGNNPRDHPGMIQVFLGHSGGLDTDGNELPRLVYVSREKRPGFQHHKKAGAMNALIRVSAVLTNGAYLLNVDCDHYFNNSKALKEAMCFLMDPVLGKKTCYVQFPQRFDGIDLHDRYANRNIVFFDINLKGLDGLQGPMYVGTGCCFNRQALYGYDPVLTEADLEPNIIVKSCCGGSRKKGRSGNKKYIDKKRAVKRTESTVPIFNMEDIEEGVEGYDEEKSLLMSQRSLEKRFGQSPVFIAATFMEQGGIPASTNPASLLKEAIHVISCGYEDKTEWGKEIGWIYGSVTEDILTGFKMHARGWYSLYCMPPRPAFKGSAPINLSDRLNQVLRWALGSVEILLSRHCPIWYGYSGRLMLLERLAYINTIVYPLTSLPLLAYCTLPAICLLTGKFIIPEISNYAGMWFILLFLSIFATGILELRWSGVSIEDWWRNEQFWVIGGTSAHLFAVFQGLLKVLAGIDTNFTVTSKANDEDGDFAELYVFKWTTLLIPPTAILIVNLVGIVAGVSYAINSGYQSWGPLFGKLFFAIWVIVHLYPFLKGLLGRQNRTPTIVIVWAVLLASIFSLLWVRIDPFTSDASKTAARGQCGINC
# Target: SlFWL5-YFP (SlFWL5 fused to yellow fluorescent protein at the C-terminal end) (tomato (Solanum lycopersicum cv. Ailsa Craig))
# Assay: affinity purification with mass spectrometry; IP-MS/MS: total protein extract (1x PBS, protease inhibitors, 1% Triton X-100, 4 °C) of pooled leaves 6, 5 and 4 of 4-week-old 35S::SlFWL5-YFP tomato plants; anti-GFP microbeads (µMACS Epitope Tag Protein Isolation Kit); about 500 µg soluble protein per assay; control 35S::NLS-GFP-GUS; LC-MS/MS
substance,measurement,value
"SlCesA1, a subunit of the Cellulose Synthase complex (from UniProt A0A3Q7IID5) (enzyme)",binding,binds

# These are yes or no findings as the source states them, for the method shown. Binding seen in cells or lysates may run through a third protein. A yes stands for co-enrichment or nearness to the bait. Other partners may have been found.
